# Measurements from the supplement of paper PMC10849652.
# Amino acid sequences for entries named in this document (tags omitted). A change or cut given only in a name is not applied to a line headed by its entry.
# UniProt Q8IWF6: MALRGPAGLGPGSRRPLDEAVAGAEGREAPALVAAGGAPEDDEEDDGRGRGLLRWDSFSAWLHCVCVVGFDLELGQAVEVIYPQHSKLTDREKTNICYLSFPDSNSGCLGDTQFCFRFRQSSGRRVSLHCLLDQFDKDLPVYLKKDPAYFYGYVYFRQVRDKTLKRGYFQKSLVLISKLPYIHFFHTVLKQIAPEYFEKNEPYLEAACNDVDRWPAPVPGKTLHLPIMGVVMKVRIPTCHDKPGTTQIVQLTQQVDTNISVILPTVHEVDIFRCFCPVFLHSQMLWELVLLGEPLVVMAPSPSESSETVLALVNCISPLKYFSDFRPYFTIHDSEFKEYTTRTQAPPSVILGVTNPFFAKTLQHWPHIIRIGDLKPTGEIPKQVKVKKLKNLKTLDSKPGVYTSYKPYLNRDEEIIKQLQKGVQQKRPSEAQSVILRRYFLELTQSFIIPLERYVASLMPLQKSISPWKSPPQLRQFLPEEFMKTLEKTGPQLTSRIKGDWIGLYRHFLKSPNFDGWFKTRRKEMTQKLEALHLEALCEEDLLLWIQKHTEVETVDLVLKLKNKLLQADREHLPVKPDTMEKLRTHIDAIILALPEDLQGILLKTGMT
# UniProt Q8TCE6, whole entry, looked up: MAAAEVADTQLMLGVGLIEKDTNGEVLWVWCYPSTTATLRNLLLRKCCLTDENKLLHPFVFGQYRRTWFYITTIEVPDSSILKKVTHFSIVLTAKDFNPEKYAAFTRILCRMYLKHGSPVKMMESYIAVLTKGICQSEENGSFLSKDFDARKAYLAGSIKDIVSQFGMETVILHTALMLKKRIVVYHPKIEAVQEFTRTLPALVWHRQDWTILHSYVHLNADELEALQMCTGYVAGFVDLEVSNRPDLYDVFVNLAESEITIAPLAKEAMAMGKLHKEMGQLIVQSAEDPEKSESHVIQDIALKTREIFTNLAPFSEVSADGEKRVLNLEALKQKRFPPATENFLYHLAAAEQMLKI
# UniProt Q96EP5: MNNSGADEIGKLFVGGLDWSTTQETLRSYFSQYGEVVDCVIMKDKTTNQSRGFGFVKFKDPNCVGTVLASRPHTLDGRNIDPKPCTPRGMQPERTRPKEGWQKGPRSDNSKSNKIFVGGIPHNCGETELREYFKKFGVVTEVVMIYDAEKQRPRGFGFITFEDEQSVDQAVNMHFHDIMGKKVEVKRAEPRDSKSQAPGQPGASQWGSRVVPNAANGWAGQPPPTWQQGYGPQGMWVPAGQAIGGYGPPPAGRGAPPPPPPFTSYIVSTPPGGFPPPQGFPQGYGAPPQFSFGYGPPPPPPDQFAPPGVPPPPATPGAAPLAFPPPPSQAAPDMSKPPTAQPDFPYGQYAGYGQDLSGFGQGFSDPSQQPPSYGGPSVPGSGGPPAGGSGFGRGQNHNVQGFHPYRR
# UniProt Q9UJU6: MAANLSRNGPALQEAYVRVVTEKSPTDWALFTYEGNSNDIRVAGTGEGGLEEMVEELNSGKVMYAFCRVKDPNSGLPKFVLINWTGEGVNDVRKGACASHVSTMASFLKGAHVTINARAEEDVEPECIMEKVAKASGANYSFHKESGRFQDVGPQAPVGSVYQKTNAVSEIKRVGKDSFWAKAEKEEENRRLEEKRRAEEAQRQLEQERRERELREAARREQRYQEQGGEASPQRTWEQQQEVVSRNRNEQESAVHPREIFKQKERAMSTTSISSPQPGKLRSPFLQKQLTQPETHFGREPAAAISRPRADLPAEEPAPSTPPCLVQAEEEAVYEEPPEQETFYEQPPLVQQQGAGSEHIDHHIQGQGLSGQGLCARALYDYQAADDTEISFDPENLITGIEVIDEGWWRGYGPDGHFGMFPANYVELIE
# UniProt Q9NUI1: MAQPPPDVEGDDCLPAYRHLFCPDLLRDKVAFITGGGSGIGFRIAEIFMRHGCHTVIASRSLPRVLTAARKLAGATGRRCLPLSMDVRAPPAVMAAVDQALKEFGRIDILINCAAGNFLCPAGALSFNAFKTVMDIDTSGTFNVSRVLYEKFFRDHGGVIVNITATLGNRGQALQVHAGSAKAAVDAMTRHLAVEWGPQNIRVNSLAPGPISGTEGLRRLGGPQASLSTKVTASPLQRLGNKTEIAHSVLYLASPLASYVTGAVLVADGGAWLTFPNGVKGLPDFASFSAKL
# UniProt O75935, whole entry, looked up: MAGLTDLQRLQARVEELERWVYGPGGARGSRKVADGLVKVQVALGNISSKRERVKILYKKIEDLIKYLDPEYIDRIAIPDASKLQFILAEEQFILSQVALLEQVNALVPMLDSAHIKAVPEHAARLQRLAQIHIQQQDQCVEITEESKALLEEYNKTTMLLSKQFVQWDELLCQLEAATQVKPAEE
# UniProt Q7Z4W1: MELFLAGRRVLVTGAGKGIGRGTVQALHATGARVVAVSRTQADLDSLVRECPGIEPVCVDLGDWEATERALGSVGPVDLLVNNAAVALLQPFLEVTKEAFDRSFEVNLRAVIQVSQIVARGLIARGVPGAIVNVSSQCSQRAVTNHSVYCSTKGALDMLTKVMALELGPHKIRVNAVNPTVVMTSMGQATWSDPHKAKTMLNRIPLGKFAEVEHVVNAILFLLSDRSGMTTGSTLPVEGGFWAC
# UniProt Q8TDD1, whole entry, looked up: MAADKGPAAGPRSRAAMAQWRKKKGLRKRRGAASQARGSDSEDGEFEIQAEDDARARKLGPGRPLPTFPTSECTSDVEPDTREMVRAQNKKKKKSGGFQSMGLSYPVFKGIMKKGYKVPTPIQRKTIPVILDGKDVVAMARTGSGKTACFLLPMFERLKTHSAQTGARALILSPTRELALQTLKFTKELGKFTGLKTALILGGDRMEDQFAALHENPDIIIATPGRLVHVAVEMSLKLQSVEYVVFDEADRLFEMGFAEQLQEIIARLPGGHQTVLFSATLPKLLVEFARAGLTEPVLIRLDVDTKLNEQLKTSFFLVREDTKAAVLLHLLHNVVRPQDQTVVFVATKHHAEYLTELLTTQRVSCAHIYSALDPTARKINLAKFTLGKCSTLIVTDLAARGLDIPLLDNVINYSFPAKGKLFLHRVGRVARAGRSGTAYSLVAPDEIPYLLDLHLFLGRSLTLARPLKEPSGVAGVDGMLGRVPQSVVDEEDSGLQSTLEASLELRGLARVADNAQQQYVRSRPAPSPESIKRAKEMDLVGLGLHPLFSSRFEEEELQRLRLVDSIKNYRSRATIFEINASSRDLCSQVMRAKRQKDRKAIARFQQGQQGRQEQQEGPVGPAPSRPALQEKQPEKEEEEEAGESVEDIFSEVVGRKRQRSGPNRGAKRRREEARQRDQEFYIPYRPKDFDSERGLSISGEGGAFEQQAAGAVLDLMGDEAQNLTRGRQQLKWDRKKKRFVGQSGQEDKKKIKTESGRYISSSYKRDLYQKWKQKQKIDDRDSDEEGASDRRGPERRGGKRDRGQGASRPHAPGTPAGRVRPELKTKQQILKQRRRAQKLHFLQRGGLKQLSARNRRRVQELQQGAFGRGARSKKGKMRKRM
# UniProt Q9UJV9: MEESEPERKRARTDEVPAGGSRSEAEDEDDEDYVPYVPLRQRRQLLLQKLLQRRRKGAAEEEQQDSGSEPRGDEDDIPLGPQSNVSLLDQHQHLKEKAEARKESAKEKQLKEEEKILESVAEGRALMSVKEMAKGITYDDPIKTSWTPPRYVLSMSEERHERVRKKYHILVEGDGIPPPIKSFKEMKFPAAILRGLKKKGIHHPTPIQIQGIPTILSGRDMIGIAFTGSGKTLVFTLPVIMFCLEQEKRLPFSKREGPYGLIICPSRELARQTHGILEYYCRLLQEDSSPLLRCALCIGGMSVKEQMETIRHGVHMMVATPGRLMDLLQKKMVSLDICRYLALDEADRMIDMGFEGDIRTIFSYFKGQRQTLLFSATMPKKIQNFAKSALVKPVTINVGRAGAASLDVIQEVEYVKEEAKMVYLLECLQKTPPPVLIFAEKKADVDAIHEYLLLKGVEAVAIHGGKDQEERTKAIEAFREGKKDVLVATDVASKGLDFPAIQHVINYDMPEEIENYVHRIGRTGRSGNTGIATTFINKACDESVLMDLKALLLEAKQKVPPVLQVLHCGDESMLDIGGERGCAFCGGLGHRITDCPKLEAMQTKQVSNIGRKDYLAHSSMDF
# UniProt Q8NHQ9: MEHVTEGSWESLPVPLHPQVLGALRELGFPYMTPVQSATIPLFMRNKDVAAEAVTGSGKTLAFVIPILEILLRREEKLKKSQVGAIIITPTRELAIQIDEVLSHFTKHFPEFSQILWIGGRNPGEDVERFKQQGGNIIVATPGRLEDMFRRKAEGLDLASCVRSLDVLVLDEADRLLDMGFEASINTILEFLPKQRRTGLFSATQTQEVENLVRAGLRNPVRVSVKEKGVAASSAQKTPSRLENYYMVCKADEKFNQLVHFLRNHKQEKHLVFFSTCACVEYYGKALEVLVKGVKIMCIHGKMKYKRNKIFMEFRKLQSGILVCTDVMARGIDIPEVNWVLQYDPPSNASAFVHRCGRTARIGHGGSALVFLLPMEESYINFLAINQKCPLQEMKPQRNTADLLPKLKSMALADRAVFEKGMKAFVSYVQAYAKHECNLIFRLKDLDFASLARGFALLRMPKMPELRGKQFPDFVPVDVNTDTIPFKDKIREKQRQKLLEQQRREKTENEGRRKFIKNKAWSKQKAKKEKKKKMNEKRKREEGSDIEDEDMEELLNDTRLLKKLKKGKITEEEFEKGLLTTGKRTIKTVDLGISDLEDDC
# UniProt Q9NV06: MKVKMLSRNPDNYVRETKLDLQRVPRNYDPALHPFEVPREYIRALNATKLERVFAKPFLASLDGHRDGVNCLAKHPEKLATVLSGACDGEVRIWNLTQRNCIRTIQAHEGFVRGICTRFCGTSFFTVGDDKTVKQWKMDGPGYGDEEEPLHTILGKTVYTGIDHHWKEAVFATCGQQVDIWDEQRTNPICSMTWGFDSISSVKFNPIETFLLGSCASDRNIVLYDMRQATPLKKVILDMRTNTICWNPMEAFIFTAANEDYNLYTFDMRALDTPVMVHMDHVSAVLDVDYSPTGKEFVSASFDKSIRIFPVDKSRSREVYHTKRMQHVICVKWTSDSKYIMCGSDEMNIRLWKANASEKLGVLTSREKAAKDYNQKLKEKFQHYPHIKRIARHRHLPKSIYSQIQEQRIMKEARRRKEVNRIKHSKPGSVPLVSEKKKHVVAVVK
# UniProt O15121: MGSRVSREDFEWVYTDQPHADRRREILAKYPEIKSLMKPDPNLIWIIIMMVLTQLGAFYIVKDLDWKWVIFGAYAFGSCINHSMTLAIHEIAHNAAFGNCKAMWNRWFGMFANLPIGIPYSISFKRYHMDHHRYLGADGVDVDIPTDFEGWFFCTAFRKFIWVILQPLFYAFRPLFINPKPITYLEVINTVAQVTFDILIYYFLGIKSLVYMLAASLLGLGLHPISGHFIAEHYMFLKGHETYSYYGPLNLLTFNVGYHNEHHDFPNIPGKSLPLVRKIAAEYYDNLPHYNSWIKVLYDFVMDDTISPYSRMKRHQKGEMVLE
# UniProt O94830: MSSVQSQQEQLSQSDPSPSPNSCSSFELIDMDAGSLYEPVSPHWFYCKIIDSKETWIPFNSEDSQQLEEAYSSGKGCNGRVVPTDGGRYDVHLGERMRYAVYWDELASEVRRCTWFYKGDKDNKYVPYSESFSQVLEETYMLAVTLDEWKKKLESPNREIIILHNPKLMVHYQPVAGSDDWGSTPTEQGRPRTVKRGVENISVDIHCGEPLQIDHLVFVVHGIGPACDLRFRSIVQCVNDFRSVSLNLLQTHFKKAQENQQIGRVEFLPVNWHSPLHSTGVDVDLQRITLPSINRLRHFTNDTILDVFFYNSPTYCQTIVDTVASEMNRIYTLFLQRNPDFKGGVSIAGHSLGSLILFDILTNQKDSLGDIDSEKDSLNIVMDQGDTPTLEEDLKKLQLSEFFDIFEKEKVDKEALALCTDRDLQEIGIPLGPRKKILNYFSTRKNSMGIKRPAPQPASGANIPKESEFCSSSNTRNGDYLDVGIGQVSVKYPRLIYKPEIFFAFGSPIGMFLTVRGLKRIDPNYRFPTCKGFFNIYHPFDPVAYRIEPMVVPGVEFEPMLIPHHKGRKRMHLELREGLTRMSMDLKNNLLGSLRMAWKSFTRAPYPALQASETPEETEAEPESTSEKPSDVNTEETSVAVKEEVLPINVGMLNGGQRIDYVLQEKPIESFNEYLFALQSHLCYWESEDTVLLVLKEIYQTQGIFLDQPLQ
# UniProt Q9Y315: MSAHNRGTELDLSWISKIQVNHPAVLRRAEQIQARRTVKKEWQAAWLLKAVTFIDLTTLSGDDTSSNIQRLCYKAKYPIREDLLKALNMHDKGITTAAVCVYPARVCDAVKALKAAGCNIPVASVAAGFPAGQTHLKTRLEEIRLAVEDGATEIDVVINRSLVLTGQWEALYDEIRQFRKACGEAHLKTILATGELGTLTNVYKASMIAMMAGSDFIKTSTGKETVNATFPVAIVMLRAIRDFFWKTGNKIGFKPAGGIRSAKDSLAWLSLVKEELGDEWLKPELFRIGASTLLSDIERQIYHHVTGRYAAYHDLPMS
# The list shows a part of the results.
# Experiments:
# Test in all cases: log2 fold change, soluble protein after heating vs DMSO (PISA); higher = thermal stabilisation; K562 lysate, 10 uM; active = over 0.2 and 3.5 SD of the protein, either way, in both replicates (recomputed)
# [1] = compound: Cc1cn(-c2cc(NC(=O)c3ccc(C)c(Nc4nccc(-c5cccnc5)n4)c3)cc(C(F)(F)F)c2)cn1 [nilotinib]
# Procedure, shortened: (§1)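 Dounce homogenisation of K562 pellets in PBS pH 7.4 with 1 mM MgCl2 produced a crude extract, used at 1 mg/mL protein. Exposure to 10 μM compound lasted 30 min, and aliquots were then heated for 3 min across 48°C-58°C, pooled and brought to 0.5% NP-40 at 4°C. The supernatant after 21,000xg for 90 min was quantified by TMTpro 16plex LC-MS/MS with channel sums equalised. Duplicate values are given as log-two fold change in thermal stability relative to solvent controls.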
# [2] = compound: Cc1nc(Nc2n[nH]c3c2CN(C(=O)N[C@H](CN(C)C)c2ccccc2)C3(C)C)c2sccc2n1
# Procedure, shortened: as §1
# [3] = compound: Cc1nc(Nc2ncc(C(=O)Nc3c(C)cccc3Cl)s2)cc(N2CCN(CCO)CC2)n1 [dasatinib]
# Procedure, shortened: as §1
# [4] = compound: Cc1ncc(-c2ccnc(Nc3ccc(S(C)(=O)=O)cc3)n2)n1C(C)C
# Procedure, shortened: as §1
# [5] = compound: Cn1cc(-c2ccc3c(c2)CCN3C(=O)Cc2cccc(C(F)(F)F)c2)c2c(N)ncnc21
# Procedure, shortened: as §1
# [6] = compound: Cn1cc(CNCC2CCN(c3ncc(C(=O)NO)cn3)CC2)c2ccccc21 [quisinostat]
# Procedure, shortened: as §1
# [7] = compound: Cn1cncc1[C@@](N)(c1ccc(Cl)cc1)c1ccc2c(c1)c(-c1cccc(Cl)c1)cc(=O)n2C [tipifarnib]
# Procedure, shortened: as §1
# [8] = compound: NC(=O)Nc1cc(-c2cccc(F)c2)sc1C(=O)N[C@H]1CCCNC1
# Procedure, shortened: as §1
# [9] = compound: NC(=O)c1cnc(N[C@@H]2CCCC[C@@H]2N)nc1Nc1cccc(-n2nccn2)c1
# Procedure, shortened: as §1
# [10] = compound: NC1(c2ccc(-c3nc4ccn5c(=O)[nH]nc5c4cc3-c3ccccc3)cc2)CCC1
# Procedure, shortened: as §1
# [11] = compound: NCC(=O)Nc1ccc(-n2nc(C(F)(F)F)cc2-c2ccc3c(ccc4ccccc43)c2)cc1
# Procedure, shortened: as §1
# [12] = compound: O=C(CCCCCCC(=O)Nc1ccccc1)NO [vorinostat]
# Procedure, shortened: as §1
# [13] = compound: O=C(O)c1ccc2c(c1)nc(Nc1cccc(Cl)c1)c1ccncc12 [silmitasertib]
# Procedure, shortened: as §1
# [14] = compound: O=C1NC(=O)C(c2cnc3ccccn23)=C1c1cn2c3c(cc(F)cc13)CN(C(=O)N1CCCCC1)CC2
# Procedure, shortened: as §1
# [15] = compound: c1cn2cc(-c3ccc4cn[nH]c4c3)nc(Nc3ccc(N4CCOCC4)cc3)c2n1 [entospletinib]
# Procedure, shortened: as §1
Target,log2 fold change [1],log2 fold change [2],log2 fold change [3],log2 fold change [4],log2 fold change [5],log2 fold change [6],log2 fold change [7],log2 fold change [8],log2 fold change [9],log2 fold change [10],log2 fold change [11],log2 fold change [12],log2 fold change [13],log2 fold change [14],log2 fold change [15]
DENND6A (UniProt Q8IWF6),inactive: 0.012,inactive: -0.009,inactive: 0.053,inactive: 0.017,inactive: 0.095,inactive: -0.084,inactive: -0.041,inactive: 0.018,inactive: -0.032,inactive: -0.011,inactive: -0.049,active: -0.38,inactive: 0.1,inactive: -0.07,inactive: -0.051
DCAF11 (UniProt Q8TEB1),inactive: 0.007,inactive: 0.082,inactive: -0.047,inactive: 0.04,inactive: -0.001,inactive: -0.054,inactive: 0.055,inactive: 0.022,inactive: -0.01,inactive: -0.017,inactive: -0.006,inactive: 0.043,inactive: -0.024,inactive: 0.005,inactive: 0.008
DDX56 (UniProt Q9NY93),inactive: -0.053,inactive: -0.03,inactive: -0.043,inactive: 0.016,inactive: -0.014,inactive: -0.053,inactive: 0.012,inactive: 0.018,inactive: 0.005,inactive: -0.003,inactive: 0.026,inactive: -0.048,inactive: 0.005,inactive: -0.019,inactive: 0.031
DENND10 (UniProt Q8TCE6),inactive: -0.022,inactive: 0.052,inactive: -0.033,inactive: -0.064,inactive: 0.018,inactive: -0.091,inactive: 0.016,inactive: 0.16,inactive: -0.013,inactive: -0.036,inactive: 0.032,inactive: -0.113,inactive: -0.015,inactive: -0.055,inactive: 0.012
DENND1A isoform 6 (UniProt Q8TEH3),inactive: -0.111,inactive: 0.015,inactive: -0.135,inactive: -0.01,inactive: 0.024,inactive: -0.11,inactive: 0.065,inactive: 0.021,inactive: -0.08,inactive: -0.074,inactive: -0.321,inactive: -0.491,inactive: 0.031,inactive: -0.094,inactive: -0.052
DAZAP1 (UniProt Q96EP5),inactive: -0.066,inactive: 0.04,inactive: 0.015,inactive: 0.044,inactive: -0.016,inactive: 0.118,inactive: -0.039,inactive: 0.005,inactive: 0.01,inactive: -0.008,inactive: 0.032,inactive: -0.031,inactive: 0.014,inactive: 0.032,inactive: -0.001
DBNL isoform 3 (UniProt Q9UJU6),inactive: 0.019,inactive: -0.009,inactive: 0.03,inactive: 0.007,inactive: -0.038,inactive: 0.095,inactive: 0.019,inactive: -0.025,inactive: -0.006,inactive: -0.021,inactive: 0.012,inactive: 0.023,inactive: -0.009,inactive: 0.061,inactive: -0.023
DECR2 (UniProt Q9NUI1),inactive: -0.075,inactive: -0.048,inactive: 0.049,inactive: 0.05,inactive: 0.033,inactive: 0.035,inactive: 0.132,inactive: -0.046,inactive: 0.076,inactive: -0.014,inactive: -0.038,inactive: 0.168,inactive: -0.021,inactive: 0.067,inactive: -0.012
DCAF15 (UniProt Q66K64),inactive: -0.035,inactive: -0.009,inactive: 0,inactive: 0,inactive: 0.072,inactive: 0.022,inactive: 0.097,inactive: 0.081,inactive: -0.055,inactive: -0.039,inactive: 0.125,inactive: -0.24,inactive: 0.071,inactive: 0.006,inactive: -0.01
DCTN3 (UniProt O75935),inactive: -0.01,inactive: -0.017,inactive: -0.019,inactive: 0.033,inactive: 0.07,inactive: 0.017,inactive: 0.019,inactive: -0.031,inactive: 0.025,inactive: 0.013,inactive: -0.056,inactive: -0.016,inactive: 0.046,inactive: -0.042,inactive: -0.015
DCXR (UniProt Q7Z4W1),inactive: 0.005,inactive: -0.04,inactive: -0.02,inactive: 0,inactive: 0.019,inactive: 0.019,inactive: 0.041,inactive: -0.019,inactive: -0.022,inactive: 0.017,inactive: -0.01,inactive: -0.083,inactive: 0.023,inactive: -0.049,inactive: 0.012
DDX54 isoform 2 (UniProt Q8TDD1),inactive: 0.047,inactive: -0.035,inactive: 0.002,inactive: 0.019,inactive: 0.089,inactive: 0.042,inactive: -0.023,inactive: 0.021,inactive: 0.001,inactive: 0.011,inactive: 0.131,inactive: 0.066,inactive: -0.006,inactive: -0.008,inactive: -0.009
DDX41 (UniProt Q9UJV9),inactive: -0.013,inactive: 0.029,inactive: 0.056,inactive: -0.001,inactive: 0.068,inactive: -0.042,inactive: -0.01,inactive: 0.009,inactive: -0.007,inactive: -0.003,inactive: 0.034,inactive: -0.098,inactive: -0.001,inactive: 0.022,inactive: -0.04
DDX55 (UniProt Q8NHQ9),inactive: -0.014,inactive: 0.03,inactive: 0.006,inactive: 0,inactive: 0.074,inactive: -0.021,inactive: -0.038,inactive: 0.049,inactive: 0.032,inactive: -0.046,inactive: -0.036,inactive: -0.147,inactive: 0.059,inactive: -0.004,inactive: -0.005
DCAF13 (UniProt Q9NV06),inactive: -0.006,inactive: 0.078,inactive: 0.056,inactive: -0.018,inactive: 0.031,inactive: -0.011,inactive: -0.012,inactive: -0.015,inactive: 0.032,inactive: -0.075,inactive: -0.023,inactive: 0.048,inactive: -0.076,inactive: 0,inactive: -0.032
DEGS1 (UniProt O15121),inactive: 0.008,inactive: -0.031,inactive: -0.056,inactive: 0.002,inactive: -0.122,inactive: -0.042,inactive: 0.062,inactive: 0.008,inactive: 0,inactive: 0.098,inactive: -0.027,inactive: 0.157,inactive: -0.095,inactive: 0.009,inactive: -0.024
DCTD isoform 2 (UniProt P32321),inactive: 0.035,inactive: -0.006,inactive: 0.013,inactive: 0.017,inactive: 0.008,inactive: -0.019,inactive: 0.03,inactive: -0.035,inactive: -0.004,inactive: 0.028,inactive: -0.024,inactive: 0.014,inactive: -0.025,inactive: -0.013,inactive: -0.008
DDHD2 (UniProt O94830),inactive: 0.017,inactive: 0.007,inactive: 0.025,inactive: -0.012,inactive: 0,inactive: -0.013,inactive: -0.024,inactive: 0.039,inactive: -0.019,inactive: 0.017,inactive: 0.014,inactive: -0.054,inactive: 0.031,inactive: 0.019,inactive: -0.014
DERA (UniProt Q9Y315),inactive: 0.037,inactive: -0.027,inactive: 0.057,inactive: 0.006,inactive: -0.017,inactive: -0.008,inactive: 0.08,inactive: -0.017,inactive: -0.021,inactive: 0,inactive: -0.015,inactive: 0.063,inactive: -0.003,inactive: 0.018,inactive: 0

# Already shown: an excerpt of the list.
Target,log2 fold change [1],log2 fold change [2],log2 fold change [3],log2 fold change [4],log2 fold change [5],log2 fold change [6],log2 fold change [7],log2 fold change [8],log2 fold change [9],log2 fold change [10],log2 fold change [11],log2 fold change [12],log2 fold change [13],log2 fold change [14],log2 fold change [15]
DBNL isoform 3 (UniProt Q9UJU6),inactive: 0.019,inactive: -0.009,inactive: 0.03,inactive: 0.007,inactive: -0.038,inactive: 0.095,inactive: 0.019,inactive: -0.025,inactive: -0.006,inactive: -0.021,inactive: 0.012,inactive: 0.023,inactive: -0.009,inactive: 0.061,inactive: -0.023
DECR2 (UniProt Q9NUI1),inactive: -0.075,inactive: -0.048,inactive: 0.049,inactive: 0.05,inactive: 0.033,inactive: 0.035,inactive: 0.132,inactive: -0.046,inactive: 0.076,inactive: -0.014,inactive: -0.038,inactive: 0.168,inactive: -0.021,inactive: 0.067,inactive: -0.012
DCAF15 (UniProt Q66K64),inactive: -0.035,inactive: -0.009,inactive: 0,inactive: 0,inactive: 0.072,inactive: 0.022,inactive: 0.097,inactive: 0.081,inactive: -0.055,inactive: -0.039,inactive: 0.125,inactive: -0.24,inactive: 0.071,inactive: 0.006,inactive: -0.01
DCTN3 (UniProt O75935),inactive: -0.01,inactive: -0.017,inactive: -0.019,inactive: 0.033,inactive: 0.07,inactive: 0.017,inactive: 0.019,inactive: -0.031,inactive: 0.025,inactive: 0.013,inactive: -0.056,inactive: -0.016,inactive: 0.046,inactive: -0.042,inactive: -0.015
